Experimental data reported in publication PMC10040217.

Chains of the proteins cited; added tags and fusions are not shown.
UniProt Q9VWE6: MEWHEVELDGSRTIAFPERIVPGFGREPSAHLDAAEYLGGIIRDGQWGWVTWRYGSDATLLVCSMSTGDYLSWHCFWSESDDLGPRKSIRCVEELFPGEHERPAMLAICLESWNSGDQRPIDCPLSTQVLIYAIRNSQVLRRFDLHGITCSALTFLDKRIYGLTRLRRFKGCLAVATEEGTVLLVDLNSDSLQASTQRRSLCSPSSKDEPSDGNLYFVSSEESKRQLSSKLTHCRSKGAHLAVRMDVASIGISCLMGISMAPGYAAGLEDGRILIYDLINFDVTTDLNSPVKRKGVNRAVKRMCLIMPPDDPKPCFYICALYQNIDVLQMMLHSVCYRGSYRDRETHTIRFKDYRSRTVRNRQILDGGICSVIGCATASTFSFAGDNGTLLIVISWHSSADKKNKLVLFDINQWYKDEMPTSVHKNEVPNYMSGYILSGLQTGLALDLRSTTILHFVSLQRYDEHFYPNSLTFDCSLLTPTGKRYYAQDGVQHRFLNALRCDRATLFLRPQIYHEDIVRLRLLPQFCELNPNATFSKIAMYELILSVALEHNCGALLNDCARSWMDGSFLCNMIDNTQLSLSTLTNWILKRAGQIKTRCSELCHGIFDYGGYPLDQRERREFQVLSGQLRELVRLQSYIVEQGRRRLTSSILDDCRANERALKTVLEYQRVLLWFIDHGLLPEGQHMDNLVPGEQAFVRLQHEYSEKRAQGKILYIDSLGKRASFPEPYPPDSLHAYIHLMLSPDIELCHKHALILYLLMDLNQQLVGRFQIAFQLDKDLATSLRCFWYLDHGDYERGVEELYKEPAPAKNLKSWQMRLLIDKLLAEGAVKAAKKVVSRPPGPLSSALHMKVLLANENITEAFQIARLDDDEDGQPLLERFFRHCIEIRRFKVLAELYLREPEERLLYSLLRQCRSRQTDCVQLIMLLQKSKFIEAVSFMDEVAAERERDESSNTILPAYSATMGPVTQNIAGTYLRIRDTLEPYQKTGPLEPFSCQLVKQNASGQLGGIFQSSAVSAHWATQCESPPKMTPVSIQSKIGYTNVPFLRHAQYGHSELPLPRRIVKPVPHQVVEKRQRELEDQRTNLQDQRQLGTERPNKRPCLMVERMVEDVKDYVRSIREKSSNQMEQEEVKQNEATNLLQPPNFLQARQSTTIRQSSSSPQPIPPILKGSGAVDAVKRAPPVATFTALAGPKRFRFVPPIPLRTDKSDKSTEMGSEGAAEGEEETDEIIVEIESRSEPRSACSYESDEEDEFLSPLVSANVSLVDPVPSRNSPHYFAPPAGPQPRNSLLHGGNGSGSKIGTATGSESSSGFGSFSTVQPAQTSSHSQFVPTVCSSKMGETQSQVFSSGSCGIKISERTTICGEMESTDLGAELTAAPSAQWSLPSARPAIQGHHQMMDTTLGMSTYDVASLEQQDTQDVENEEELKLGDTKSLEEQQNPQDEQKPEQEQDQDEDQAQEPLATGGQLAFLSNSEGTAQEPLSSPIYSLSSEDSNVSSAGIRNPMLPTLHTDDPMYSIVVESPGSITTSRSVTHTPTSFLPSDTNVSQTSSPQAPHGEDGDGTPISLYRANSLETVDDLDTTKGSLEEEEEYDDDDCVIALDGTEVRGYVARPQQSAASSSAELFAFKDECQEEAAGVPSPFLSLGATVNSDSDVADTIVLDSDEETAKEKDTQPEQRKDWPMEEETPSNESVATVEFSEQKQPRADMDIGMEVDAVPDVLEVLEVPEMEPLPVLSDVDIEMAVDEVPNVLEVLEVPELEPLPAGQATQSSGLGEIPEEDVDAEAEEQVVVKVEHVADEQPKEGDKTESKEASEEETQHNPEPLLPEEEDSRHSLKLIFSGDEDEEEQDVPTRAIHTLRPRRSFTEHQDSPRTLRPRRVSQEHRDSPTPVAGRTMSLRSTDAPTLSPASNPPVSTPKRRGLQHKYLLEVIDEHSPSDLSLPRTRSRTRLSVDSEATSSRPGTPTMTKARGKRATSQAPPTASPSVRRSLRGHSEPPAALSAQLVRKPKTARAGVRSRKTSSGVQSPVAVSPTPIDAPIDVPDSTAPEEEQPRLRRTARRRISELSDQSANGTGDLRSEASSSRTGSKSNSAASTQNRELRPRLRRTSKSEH

T1: ORC2-GFP (Drosophila (endogenous in embryos)) (UniProt Q24168)
T1 sequence: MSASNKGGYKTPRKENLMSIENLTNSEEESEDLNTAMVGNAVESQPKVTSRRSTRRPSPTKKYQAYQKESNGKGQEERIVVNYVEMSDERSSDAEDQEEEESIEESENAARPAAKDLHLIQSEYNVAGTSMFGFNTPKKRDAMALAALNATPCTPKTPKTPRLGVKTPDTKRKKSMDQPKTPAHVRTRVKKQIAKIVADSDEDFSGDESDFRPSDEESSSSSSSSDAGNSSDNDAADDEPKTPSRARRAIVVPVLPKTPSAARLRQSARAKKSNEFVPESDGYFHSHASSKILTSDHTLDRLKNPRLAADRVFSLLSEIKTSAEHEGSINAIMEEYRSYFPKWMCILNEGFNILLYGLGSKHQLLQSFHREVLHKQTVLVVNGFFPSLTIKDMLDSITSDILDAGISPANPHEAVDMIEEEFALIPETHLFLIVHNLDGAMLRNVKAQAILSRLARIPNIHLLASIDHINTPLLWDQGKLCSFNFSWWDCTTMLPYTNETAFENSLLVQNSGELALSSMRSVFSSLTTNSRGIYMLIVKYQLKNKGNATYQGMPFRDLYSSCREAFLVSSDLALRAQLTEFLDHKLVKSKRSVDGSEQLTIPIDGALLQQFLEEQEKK

B1: Nup160 (protein, UniProt Q9VKJ3 1-1411)
chain: MPTSKLQANMSYREVIPRNLSPAEWIEVKINTGTQSTLQDLKTFETSGGYCYKNTKNVQTRNRFIYWRTYQDVLELSEVSLDISLQRNHLRLRFTDSAVLNVSLTEQGTSVTLLVVTVSSVHRYVFPLKVAGQEGGAASPEDLLSQSIFYDVNDKINDPSTYYVTDGFGTMPNAAVSYLTQDSQSAYFAVAYQSKLLLHVMKCSTGHTITHEIKEPKLMPWFLSNLKGALTGRSETLEAATSMAFSEIGGEIFILVLYRNNELRLWSVDNLQTVASINCSTELGQDSAAQGPQNSQLRKISDQNFCLFLSHNSRAEFICVSIMPDADDASVINLVQNMVPAPQTDLVDFDATSSHIWALWSNAEGDFHVSAAYFASNNAIKWVSAALEPPPDRYCLTMEQGVDPRETYCSYIFHPGRFDRNVIAKALYMFRRVNLQFDVKQLSMSVLKEQVCQAVEDEIQNELKDFVVTDEEYLEISTRLWDRFYSCCEQYHIKLSEPTGLAVLGGMDAVCLVRRQSFALLRPCEVLEHLLLIGEHNDEVATYVAPLFRNDPEMAKGFVELMNVVTLLDKLISEDIKIELDKQLYQRESPVEVISKLVARISMIDDNGPILPSNCVRQIQQKLQNIPNLEPALEMLLDVLCMIDPDEPPHDYSLSTRFLQSSGALMGSEYGLSILSETVKQMAMIRFSVCRNLLVLQYMAYGQNEMESENVLTNLNYLNSYYTLVWIAETPISSSTPAGFEASIQRLSRAQLFSGYNRPYSSHLKHNGNDQTTLLRLFLESKGLFSALTMLLKHDSLSLDSEQLNLRQSLLQLVGYINKMLWPGSPIYVFPEWLFGTCHHIIVQDYVRILSNWCSVQKHARRFMLAVSLLDCGEAHKAVHLFHEAESGIVEDDFLFEHVLKNTPLYGKLQNSVSRGDTISPEDTKLAIVHYYLKVIQLFEQHSALDYIIQLADMAIRVLQPDDPQLPMFQSIVFNNHLQLGHYVEAYTALVNNADISRRKDCLRQLVITLFQNKCLPLLMQFSYIGLQDEFESIVESRARSMSIDQNEVYNFLYAFHTNKGNMRKASTVMYEQAMRFQVDSDAPNALEKRCSSLLICLNCLHLVDSRYRWIAKPVLGDEQVITIDQDNDDGEPKCDEDKRGQEVVVLELADIRRELVHAEALRELSFYRKDTAAYERATPEELSYLLASSGLYTAALKLSRGHSFSVLPIFESLTSACVAATEDKSSDAWNWLQNNDMADLPHRSNAADMAWTLLQKLVVDNEAKDSTLIRKSVVQRLLGLNAFLPQWLINSYKLSHSRELLHLLVKHNRLLEAADLGCEIIAGMLGAGSEYFEFKHAVNIANPQLCFPISTIDLLLHGLKINGKDDLDYEMAYFKLEEEVQRYIETIKRTTDDKMSMAVLQMRTDLQEER

Target: T1, ORC2-GFP (Drosophila (endogenous in embryos))
Experiment: affinity purification with mass spectrometry; GFP-Trap magnetic agarose IP of ORC2-GFP from extracts of Drosophila embryos aged 18-24 h (Oregon R embryos as negative control); NP40 lysis buffer (50 mM Tris HCl pH 8.0, 150 mM NaCl, 1% NP40, 1 mM EDTA, 1 mM EGTA); extract treated with benzonase; 2 h at 4°C; three biological replicates

| Molecule | binding |
| --- | --- |
| Nup98-96 (Drosophila (endogenous in embryos)) | binds |
| Elys (from UniProt Q9VWE6 1-2111) | binds |
| B1 | binds |

These are yes or no findings as the source states them, for the method shown. In cells and extracts the contact can be indirect. A yes stands for co-enrichment or nearness to the bait. Other partners may have been found. Where a sequence is shown, tags or fusion partners need not be part of it.
